Results on three substances are retold here after publication PMC6447562, “Structures of the wild-type MexAB–OprM tripartite pump reveal its complex formation and drug efflux mechanism” (Nature Communications, 2019).

Assay in all cases: SEC; complex-formation experiment: MexA, MexB and OprM (wild type, or one of them mutated) mixed at 3:1:1 in buffer C, dialysed against buffer D (20 mM Na-citrate, 300 mM KCl, 0.02% CYMAL-7) at 4 °C, Superdex200 16/60, 0.5 mL/min; the read-out is the formation of the tripartite complex; both purified
On the technique in general: In gel filtration, larger molecules generally elute earlier.

Test [1] deals with OprM G199A (Pseudomonas aeruginosa) (UniProt Q51487).
The target in test [2] is OprM G407A (Pseudomonas aeruginosa) (UniProt Q51487).
For test [3], the target named is T1, OprM, full length (Pseudomonas aeruginosa) (UniProt Q51487).
T1 sequence: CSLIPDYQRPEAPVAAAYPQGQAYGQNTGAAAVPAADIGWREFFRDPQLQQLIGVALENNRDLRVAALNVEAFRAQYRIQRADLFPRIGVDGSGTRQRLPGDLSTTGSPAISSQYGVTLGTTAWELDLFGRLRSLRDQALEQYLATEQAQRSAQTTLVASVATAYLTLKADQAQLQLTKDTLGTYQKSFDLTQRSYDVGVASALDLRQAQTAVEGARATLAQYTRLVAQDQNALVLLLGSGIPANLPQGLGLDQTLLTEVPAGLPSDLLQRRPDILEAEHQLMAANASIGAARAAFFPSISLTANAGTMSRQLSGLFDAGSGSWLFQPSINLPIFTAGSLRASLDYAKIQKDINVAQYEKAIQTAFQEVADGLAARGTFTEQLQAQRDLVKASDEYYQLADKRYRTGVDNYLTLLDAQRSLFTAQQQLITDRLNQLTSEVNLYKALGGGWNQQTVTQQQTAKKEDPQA

These are yes or no findings as the source states them, for the method shown. For some of these results: Binding can be weak; no strength is given.

“MexA (a.a. 2-360) (from UniProt P52477 25-383)”: the binding entry in test [1] and in test [2] was “no binding” throughout.

In the case of MexA D103A (from UniProt P52477), the binding result in test [3] is on record as “binds”.

As to MexA Q104A (from UniProt P52477), in test [3], the binding entry is on record as “binds”.
